Reference: patent US8686002B2, “Heterocyclic compounds and their use as binding partners for 5-HT5 receptors” (AbbVie Deutschland GmbH & Co. KG, priority 2005, dated 2014)

By UniProt entry, the sequences of proteins in these tests, tags left out.
UniProt P47898, whole entry: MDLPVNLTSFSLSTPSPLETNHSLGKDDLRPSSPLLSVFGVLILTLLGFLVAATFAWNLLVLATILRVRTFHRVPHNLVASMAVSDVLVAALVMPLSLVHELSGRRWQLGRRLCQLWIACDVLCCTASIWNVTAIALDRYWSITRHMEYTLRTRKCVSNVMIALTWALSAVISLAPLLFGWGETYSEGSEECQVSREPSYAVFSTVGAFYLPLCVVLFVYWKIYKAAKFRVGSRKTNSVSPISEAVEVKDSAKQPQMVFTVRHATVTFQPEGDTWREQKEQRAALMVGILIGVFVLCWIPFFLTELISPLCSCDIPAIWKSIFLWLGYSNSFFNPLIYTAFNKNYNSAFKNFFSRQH

Biological target: 5-HT5A (Homo sapiens, UniProt P47898)
Assay: Affinity of selected compounds for 5-HT5A (Ki)
Format: binding
Procedure: In both assays, different concentrations of the test substances are used and the Ki and IC50 values are determined.

Ki: < 0.3 µM
SMILES: COc1cccc(Cl)c1Cc1cc2cnccc2nc1N [Example 57, 3-(2-Chloro-6-methoxybenzyl)-1,6-naphthyridin-2-amine]
